{"source": "paper PMC6546911", "about": "(Nature Communications, 2019)", "binders": {"B1": {"name": "Rfc2–5, budding yeast (complex, UniProt P40348 1-353; P38629 1-340; P40339 1-323; P38251 1-354)", "chain 1": "MFEGFGPNKKRKISKLAAEQSLAQQPWVEKYRPKNLDEVTAQDHAVTVLKKTLKSANLPHMLFYGPPGTGKTSTILALTKELYGPDLMKSRILELNASDERGISIVREKVKNFARLTVSKPSKHDLENYPCPPYKIIILDEADSMTADAQSALRRTMETYSGVTRFCLICNYVTRIIDPLASRCSKFRFKALDASNAIDRLRFISEQENVKCDDGVLERILDISAGDLRRGITLLQSASKGAQYLGDGKNITSTQVEELAGVVPHDILIEIVEKVKSGDFDEIKKYVNTFMKSGWSAASVVNQLHEYYITNDNFDTNFKNQISWLLFTTDSRLNNGTNEHIQLLNLLVKISQL", "chain 2": "MSTSTEKRSKENLPWVEKYRPETLDEVYGQNEVITTVRKFVDEGKLPHLLFYGPPGTGKTSTIVALAREIYGKNYSNMVLELNASDDRGIDVVRNQIKDFASTRQIFSKGFKLIILDEADAMTNAAQNALRRVIERYTKNTRFCVLANYAHKLTPALLSRCTRFRFQPLPQEAIERRIANVLVHEKLKLSPNAEKALIELSNGDMRRVLNVLQSCKATLDNPDEDEISDDVIYECCGAPRPSDLKAVLKSILEDDWGTAHYTLNKVRSAKGLALIDLIEGIVKILEDYELQNEETRVHLLTKLADIEYSISKGGNDQIQGSAVIGAIKASFENETVKANV", "chain 3": "MSKTLSLQLPWVEKYRPQVLSDIVGNKETIDRLQQIAKDGNMPHMIISGMPGIGKTTSVHCLAHELLGRSYADGVLELNASDDRGIDVVRNQIKHFAQKKLHLPPGKHKIVILDEADSMTAGAQQALRRTMELYSNSTRFAFACNQSNKIIEPLQSRCAILRYSKLSDEDVLKRLLQIIKLEDVKYTNDGLEAIIFTAEGDMRQAINNLQSTVAGHGLVNADNVFKIVDSPHPLIVKKMLLASNLEDSIQILRTDLWKKGYSSIDIVTTSFRVTKNLAQVKESVRLEMIKEIGLTHMRILEGVGTYLQLASMLAKIHKLNNKA", "chain 4": "MSLWVDKYRPKSLNALSHNEELTNFLKSLSDQPRDLPHLLLYGPNGTGKKTRCMALLESIFGPGVYRLKIDVRQFVTASNRKLELNVVSSPYHLEITPSDMGNNDRIVIQELLKEVAQMEQVDFQDSKDGLAHRYKCVIINEANSLTKDAQAALRRTMEKYSKNIRLIMVCDSMSPIIAPIKSRCLLIRCPAPSDSEISTILSDVVTNERIQLETKDILKRIAQASNGNLRVSLLMLESMALNNELALKSSSPIIKPDWIIVIHKLTRKIVKERSVNSLIECRAVLYDLLAHCIPANIILKELTFSLLDVETLNTTNKSSIIEYSSVFDERLSLGNKAIFHLEGFIAKVMCCLD"}}, "target": "T1, Elg1, budding yeast (budding yeast) (UniProt Q12050)", "T1 sequence": "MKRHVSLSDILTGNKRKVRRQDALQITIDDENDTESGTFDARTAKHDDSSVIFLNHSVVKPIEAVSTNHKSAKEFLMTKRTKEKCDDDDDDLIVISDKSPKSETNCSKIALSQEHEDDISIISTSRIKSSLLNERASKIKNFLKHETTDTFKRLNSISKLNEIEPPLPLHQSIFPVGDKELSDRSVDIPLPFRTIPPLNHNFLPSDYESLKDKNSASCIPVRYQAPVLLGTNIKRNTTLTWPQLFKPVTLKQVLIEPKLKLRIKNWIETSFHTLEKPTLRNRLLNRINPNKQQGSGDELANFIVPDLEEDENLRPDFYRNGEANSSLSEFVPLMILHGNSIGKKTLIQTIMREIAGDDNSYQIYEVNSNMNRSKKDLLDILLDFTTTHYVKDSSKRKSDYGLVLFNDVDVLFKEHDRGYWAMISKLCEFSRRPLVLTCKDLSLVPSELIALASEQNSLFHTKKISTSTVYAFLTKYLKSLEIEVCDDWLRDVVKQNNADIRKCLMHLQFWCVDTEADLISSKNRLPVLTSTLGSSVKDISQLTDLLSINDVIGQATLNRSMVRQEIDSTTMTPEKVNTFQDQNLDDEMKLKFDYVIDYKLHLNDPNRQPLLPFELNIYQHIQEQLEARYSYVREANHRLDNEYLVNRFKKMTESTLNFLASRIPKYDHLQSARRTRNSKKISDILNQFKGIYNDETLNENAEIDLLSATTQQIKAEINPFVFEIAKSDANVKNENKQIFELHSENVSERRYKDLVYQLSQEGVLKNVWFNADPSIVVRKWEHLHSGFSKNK", "assay": "co-purification (anti-FLAG resin, ion exchange); Elg1 variants overexpressed with Rfc2–5 in yeast (galactose, 5 h); anti-FLAG M2 agarose and ion exchange chromatography", "note": "No constants are given. Whether binding was seen depends on the method and setting. Some binding calls cover weakened binding; strength is not graded here."}
{"binder": "B1", "values": [{"measurement": "binding", "value": "binds"}]}
